From PMC11605454 come the findings set out here.

Protein sequences, listed by entry. Tags and fused reporters are not part of them. Lines headed by an entry give the natural chain unless they say otherwise; changes in a name come on top.
UniProt Q6ZPK0: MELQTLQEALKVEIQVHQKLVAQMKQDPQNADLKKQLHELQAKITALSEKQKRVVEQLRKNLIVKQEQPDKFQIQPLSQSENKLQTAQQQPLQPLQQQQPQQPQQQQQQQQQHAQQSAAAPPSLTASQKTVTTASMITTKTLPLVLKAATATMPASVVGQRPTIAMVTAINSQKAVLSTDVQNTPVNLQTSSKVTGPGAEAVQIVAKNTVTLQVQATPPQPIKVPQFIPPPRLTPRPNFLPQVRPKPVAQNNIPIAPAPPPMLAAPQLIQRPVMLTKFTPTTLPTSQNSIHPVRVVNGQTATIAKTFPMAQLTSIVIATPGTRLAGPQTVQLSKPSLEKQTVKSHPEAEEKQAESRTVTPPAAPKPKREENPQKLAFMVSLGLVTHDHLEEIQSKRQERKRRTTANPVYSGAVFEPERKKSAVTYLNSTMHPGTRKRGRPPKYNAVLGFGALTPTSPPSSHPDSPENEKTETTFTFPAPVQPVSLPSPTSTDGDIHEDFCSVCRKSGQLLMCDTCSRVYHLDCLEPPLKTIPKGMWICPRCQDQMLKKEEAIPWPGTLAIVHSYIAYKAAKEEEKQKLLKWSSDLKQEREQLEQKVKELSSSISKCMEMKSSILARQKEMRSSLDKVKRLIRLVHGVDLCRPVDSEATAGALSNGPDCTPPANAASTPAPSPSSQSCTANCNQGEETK
UniProt P70288: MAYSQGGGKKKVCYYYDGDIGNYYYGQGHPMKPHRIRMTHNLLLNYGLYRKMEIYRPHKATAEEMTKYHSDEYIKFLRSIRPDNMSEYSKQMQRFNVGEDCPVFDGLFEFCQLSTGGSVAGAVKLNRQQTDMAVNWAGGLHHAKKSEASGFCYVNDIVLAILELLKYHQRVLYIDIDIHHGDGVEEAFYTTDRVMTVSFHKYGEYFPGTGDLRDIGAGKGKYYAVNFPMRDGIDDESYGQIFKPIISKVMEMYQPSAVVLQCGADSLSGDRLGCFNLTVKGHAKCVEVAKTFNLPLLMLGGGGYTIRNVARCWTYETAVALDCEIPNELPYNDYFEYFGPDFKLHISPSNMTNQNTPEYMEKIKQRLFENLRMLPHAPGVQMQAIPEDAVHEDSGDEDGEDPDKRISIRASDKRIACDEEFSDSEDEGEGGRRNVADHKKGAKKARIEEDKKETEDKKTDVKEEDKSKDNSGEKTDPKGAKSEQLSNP

These are yes or no findings as the source states them, for the method shown. In cells and extracts the contact can be indirect. A yes stands for co-enrichment or nearness to the bait. Other partners may have been found.

Experiment [1] concerns the target PHF21A canonical isoform (PHF21A-c), mouse (mouse (endogenous in MEF and in Phf21a Δn/Δn cortex)) (UniProt Q6ZPK0). Description: affinity purification with mass spectrometry; PHF21A IP (40 ug in-house anti-PHF21A, control rabbit IgG) from nuclear extracts of MEFs and cortical neurons (DIV7); TMT multiplexed MS; n = 3; threshold p < 0.1, FC > 1.5, peptide number >= 6.

Experiment [2] concerns the target PHF21A neuronal isoform (PHF21A-n), mouse (mouse (endogenous in cortical neurons and P0 cortex)). Description: affinity purification with mass spectrometry; PHF21A IP (in-house anti-PHF21A, control rabbit IgG) from nuclear extracts of P0 cortices of Phf21a +/+ and Phf21a Δn/Δn mice; TMT multiplexed MS; n = 3-4 per genotype; threshold padj < 0.01, FC > 2, peptide number >= 6.

Experiment [3] shares this target. Description: affinity purification with mass spectrometry; PHF21A IP (40 ug in-house anti-PHF21A, control rabbit IgG) from nuclear extracts of MEFs and cortical neurons (DIV7); TMT multiplexed MS; n = 3; threshold p < 0.1, FC > 1.5, peptide number >= 6.

Regarding “HDAC2, mouse (from UniProt P70288 1-488) (enzyme)”, in experiment [1], the binding entry was “binds”.

B1: CPSF6, mouse (protein, UniProt Q6NVF9 1-551)
chain: MADGVDHIDIYADVGEEFNQEAEYGGHDQIDLYDDVISPSANNGDAPEDRDYMDTLPPTVGDDVGKGAAPNVVYTYTGKRIALYIGNLTWWTTDEDLTEAVHSLGVNDILEIKFFENRANGQSKGFALVGVGSEASSKKLMDLLPKRELHGQSPVVTPCNKQFLSQFEMQSRKTTQSGQMSGEGKAGPPGGGSRAAFPQGGRGRGRFPGAVPGGDRFPGPAGPGGPPPPFPAGQTPPRPPLGPPGPPGPPGPPPPGQVLPPPLAGPPNRGDRPPPPVLFPGQPFGQPPLGPLPPGPPPPVPGYGPPPGPPPPQQGPPPPPGPFPPRPPGPLGPPLTLAPPPHLPGPPPGAPPPAPHVNPAFFPPPTNSGMPTSDSRGPPPTDPYGRPPPYDRGDYGPPGREMDTARTPLSEAEFEEIMNRNRAISSSAISRAVSDASAGDYGSAIETLVTAISLIKQSKVSADDRCKVLISSLQDCLHGIESKSYGSGSRRERSRERDHSRSREKSRRHKSRSRDRHDDYYRERSRERERHRDRDRDRDRERDREREYRHR
As to B1, the binding result in experiment [2] is reported as “binds”.

B2: HMG20B (BRAF35), mouse (protein, UniProt Q9Z104 1-317)
chain: MSHGPRQPGAATAPAGGKTPGQHGAFVVAVKQERSEGSRAGEKGPQEEEPVKKRGWPKGKKRKKILPNGPKAPVTGYVRFLNERREQIRTRHPDLPFPEITKMLGAEWSKLQPAEKQRYLDEAEKEKQQYLKELWAYQQSEAYKVCTEKIQENKIKKEDSSSGLMNTLLNGHKGVDCDGFSTFDVPIFTEEFLDQNKAREAELRRLRKMNVAFEEQNAVLQRHTQSMSSARERLEQELALEERRTLALQQQLQAVRQALTASFASLPVPGTGETPTLGTLDFYMARLHGAIERDPAQHERLIARVKEILARVASEHL
Regarding B2, the binding result in experiment [1] and in experiment [3] was “binds” in each case.
